Measurements taken from article PMC11169412.
Results are given in words; binding and its absence hold for the method and conditions named. In cells and extracts the contact can be indirect. Here binding means that the protein was enriched with, or labelled near, the bait; the list need not be complete. For some assays here: No binding means not detected with the bait.

The chains behind the UniProt entries cited, without tags or fusion partners. Residues count along the entry.
UniProt Q9R0N3: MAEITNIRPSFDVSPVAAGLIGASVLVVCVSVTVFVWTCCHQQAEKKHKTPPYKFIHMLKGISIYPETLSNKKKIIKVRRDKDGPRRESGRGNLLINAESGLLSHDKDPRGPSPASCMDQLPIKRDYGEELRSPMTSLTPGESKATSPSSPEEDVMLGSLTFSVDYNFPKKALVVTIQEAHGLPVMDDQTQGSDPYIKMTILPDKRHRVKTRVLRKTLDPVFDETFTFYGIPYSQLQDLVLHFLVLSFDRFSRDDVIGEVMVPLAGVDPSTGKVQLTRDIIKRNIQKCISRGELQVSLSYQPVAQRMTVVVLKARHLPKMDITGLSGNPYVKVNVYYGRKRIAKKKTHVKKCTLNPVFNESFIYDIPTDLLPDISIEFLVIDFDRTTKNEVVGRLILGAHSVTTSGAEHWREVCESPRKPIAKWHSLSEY
UniProt O55017: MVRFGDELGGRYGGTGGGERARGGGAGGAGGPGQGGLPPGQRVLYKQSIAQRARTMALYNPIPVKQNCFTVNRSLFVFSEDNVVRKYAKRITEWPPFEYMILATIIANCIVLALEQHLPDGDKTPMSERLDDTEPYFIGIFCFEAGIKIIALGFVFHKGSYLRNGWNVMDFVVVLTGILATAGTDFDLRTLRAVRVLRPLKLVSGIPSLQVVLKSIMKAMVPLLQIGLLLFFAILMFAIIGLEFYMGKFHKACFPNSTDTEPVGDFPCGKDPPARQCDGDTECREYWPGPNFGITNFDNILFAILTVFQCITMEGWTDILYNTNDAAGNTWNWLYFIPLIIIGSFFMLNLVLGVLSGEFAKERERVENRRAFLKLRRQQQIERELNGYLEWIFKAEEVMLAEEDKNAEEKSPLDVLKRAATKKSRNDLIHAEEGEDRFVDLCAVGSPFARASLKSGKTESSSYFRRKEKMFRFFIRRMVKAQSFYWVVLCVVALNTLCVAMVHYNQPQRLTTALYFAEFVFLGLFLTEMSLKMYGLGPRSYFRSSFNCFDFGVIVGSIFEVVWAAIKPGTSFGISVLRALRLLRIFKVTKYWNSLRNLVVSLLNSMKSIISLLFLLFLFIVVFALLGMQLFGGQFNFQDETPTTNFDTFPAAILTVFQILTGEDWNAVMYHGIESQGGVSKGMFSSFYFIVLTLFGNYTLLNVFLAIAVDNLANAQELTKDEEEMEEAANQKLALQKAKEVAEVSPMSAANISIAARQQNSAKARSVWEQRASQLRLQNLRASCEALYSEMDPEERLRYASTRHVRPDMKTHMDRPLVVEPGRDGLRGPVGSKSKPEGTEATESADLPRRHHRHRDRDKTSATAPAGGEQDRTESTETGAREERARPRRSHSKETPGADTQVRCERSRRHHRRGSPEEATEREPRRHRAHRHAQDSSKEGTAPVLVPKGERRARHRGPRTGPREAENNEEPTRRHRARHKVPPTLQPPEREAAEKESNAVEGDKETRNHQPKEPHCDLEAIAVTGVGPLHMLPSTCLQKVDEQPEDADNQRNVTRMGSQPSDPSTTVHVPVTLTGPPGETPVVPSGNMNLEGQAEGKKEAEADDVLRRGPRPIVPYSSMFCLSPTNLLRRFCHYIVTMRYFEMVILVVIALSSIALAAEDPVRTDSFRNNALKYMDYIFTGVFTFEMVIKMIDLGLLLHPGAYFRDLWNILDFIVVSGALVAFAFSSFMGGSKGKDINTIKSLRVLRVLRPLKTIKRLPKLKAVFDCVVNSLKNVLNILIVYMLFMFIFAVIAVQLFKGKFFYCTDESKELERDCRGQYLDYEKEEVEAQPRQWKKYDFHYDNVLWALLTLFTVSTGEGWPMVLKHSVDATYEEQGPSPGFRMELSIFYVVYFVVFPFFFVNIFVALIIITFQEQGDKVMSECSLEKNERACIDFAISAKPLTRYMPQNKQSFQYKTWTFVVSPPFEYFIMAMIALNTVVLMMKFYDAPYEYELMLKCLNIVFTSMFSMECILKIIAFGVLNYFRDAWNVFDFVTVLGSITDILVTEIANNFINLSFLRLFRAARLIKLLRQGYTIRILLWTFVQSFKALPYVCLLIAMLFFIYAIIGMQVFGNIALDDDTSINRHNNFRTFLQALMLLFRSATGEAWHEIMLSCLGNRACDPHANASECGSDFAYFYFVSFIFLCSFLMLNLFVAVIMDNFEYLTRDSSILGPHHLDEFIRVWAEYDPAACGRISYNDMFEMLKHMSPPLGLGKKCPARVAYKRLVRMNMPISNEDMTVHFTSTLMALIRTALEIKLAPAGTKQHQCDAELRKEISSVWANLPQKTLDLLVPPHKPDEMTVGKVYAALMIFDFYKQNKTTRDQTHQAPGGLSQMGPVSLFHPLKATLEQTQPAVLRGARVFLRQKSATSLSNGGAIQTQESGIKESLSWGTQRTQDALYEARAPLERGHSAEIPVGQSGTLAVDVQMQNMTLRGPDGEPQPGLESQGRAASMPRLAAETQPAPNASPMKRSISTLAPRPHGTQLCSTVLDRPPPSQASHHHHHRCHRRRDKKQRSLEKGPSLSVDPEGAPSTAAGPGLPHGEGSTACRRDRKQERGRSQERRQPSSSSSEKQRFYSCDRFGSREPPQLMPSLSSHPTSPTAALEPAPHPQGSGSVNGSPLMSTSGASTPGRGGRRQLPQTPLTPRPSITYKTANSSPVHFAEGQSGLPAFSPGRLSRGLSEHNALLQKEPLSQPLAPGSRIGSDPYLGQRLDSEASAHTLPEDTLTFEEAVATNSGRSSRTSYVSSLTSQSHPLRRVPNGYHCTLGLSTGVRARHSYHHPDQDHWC
UniProt Q5DTY9: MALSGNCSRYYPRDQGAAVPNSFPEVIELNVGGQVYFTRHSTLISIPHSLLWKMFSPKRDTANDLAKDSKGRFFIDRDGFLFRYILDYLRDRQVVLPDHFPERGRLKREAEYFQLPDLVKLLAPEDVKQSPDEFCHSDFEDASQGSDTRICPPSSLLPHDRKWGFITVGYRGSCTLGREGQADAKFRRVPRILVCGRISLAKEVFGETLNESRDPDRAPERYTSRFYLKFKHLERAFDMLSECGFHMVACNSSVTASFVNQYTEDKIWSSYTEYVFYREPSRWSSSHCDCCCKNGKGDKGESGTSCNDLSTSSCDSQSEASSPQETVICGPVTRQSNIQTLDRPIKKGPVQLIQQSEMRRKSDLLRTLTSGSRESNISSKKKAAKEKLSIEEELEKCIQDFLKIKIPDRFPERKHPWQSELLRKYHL
UniProt P15209, residues 32-821: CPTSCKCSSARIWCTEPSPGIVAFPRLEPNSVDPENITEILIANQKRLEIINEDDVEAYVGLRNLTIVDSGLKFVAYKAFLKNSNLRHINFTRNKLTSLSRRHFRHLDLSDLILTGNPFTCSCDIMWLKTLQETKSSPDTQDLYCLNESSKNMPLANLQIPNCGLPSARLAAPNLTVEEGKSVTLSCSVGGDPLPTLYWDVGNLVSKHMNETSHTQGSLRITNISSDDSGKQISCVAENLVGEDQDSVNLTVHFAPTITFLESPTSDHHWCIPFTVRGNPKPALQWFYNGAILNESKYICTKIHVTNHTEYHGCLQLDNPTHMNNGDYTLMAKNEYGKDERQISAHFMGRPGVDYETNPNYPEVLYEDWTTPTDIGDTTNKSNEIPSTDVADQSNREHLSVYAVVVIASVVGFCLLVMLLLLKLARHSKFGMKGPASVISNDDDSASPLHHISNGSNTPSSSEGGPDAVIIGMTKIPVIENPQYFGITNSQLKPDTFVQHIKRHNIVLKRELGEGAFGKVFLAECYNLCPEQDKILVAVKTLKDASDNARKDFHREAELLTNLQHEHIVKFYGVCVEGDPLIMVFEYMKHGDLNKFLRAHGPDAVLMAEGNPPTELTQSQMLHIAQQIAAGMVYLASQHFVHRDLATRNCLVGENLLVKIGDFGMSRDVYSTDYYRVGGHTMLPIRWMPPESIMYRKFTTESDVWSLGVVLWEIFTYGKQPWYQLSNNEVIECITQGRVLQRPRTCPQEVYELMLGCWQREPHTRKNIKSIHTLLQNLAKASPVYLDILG
UniProt P97445: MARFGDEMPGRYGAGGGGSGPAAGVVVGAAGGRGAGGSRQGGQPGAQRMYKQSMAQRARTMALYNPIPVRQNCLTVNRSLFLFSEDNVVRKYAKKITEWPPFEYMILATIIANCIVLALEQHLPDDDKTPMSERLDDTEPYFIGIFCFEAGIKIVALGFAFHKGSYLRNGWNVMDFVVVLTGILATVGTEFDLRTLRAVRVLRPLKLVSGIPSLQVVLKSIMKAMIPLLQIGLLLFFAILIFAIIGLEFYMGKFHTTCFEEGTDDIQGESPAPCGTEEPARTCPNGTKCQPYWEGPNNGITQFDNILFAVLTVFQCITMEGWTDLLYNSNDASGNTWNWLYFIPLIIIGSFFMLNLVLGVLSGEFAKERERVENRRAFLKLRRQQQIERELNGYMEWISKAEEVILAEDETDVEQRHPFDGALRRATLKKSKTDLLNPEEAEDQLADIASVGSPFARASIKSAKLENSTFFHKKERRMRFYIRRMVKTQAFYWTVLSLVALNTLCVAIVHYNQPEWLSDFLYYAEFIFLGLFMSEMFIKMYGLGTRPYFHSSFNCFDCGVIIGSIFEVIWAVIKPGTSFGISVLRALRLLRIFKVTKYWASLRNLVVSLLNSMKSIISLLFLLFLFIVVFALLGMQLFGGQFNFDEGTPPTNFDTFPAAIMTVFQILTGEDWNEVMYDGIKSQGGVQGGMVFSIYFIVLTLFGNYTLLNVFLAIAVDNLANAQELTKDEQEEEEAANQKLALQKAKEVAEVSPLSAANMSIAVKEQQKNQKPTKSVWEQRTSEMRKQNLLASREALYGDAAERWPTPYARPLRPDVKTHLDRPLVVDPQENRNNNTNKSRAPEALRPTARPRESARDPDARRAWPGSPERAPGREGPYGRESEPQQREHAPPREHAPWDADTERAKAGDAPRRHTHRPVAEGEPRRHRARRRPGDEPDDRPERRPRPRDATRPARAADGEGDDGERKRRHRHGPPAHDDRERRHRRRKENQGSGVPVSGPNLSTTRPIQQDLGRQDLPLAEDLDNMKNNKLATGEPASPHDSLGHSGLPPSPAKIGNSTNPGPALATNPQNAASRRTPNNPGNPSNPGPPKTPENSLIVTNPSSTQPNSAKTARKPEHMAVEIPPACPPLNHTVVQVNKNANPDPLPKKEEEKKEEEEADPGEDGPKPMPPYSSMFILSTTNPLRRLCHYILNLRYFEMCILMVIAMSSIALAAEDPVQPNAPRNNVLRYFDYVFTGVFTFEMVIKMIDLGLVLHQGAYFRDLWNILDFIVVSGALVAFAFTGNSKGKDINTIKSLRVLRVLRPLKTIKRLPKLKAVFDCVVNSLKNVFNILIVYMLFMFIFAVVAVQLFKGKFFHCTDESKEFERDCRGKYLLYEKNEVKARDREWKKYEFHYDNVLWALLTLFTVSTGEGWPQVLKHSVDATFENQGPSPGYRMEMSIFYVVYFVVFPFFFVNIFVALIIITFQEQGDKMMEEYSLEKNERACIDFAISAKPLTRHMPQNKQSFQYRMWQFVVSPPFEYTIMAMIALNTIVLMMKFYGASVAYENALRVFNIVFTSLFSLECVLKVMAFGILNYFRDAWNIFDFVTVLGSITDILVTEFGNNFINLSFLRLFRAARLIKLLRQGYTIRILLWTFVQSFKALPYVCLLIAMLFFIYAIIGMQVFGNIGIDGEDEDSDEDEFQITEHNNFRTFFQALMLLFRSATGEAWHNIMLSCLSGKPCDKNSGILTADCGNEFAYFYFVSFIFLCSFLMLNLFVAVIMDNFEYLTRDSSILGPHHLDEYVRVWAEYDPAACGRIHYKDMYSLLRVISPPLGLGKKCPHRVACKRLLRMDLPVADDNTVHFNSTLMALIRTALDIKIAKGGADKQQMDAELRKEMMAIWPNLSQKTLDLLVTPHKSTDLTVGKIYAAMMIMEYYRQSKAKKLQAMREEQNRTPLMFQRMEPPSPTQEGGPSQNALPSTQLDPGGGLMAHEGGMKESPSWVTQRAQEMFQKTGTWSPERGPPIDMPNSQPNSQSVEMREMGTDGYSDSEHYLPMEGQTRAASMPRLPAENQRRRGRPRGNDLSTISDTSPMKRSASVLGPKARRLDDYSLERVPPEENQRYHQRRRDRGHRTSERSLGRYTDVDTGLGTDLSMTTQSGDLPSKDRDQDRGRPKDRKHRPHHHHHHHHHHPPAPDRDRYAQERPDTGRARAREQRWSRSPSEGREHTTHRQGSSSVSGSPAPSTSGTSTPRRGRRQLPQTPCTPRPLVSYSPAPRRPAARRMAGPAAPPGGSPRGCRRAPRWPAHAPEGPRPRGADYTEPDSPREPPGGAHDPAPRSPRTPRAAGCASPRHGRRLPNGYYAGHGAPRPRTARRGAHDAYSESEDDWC

biological target: synaptotagmin-11 (mouse (endogenous in mouse brain)) (UniProt Q9R0N3); test: affinity purification with mass spectrometry; anti-Syt11 antibodies on protein A Dynabeads, 2 h, with mouse brain membranes solubilised in CL-91 with 2 mM Ca2+; controls: anti-Syt11 with Syt11-/- membranes and pre-immunization IgG; duplicates

| binding | Molecule |
| --- | --- |
| binds | Cav2.2 (N-type voltage-gated Ca2+ channel) subunit α1B (from UniProt O55017 1-2327) |
| binds | KCTD16 (from UniProt Q5DTY9 1-427) |
| binds | TrkB (from UniProt P15209 32-821) (receptor) |
| no binding | adenosine A1 receptor (from UniProt Q60612 1-326) |
| binds | kinesin-3 motor KIF1A (from UniProt P33173 1-1695) |
| binds | neurexin-1α (from UniProt Q9CS84 31-1514) |
| no binding | α1A subunit of Cav2.1 channels (P/Q-type voltage-gated Ca2+ channels) (from UniProt P97445 1-2368) |

biological target: synaptotagmin-11 (mouse (endogenous in mouse brain)) (UniProt Q9R0N3); test: as above; remark: another data set of the same source

| binding | Molecule |
| --- | --- |
| binds | calsyntenin-3 (protein, UniProt Q99JH7 20-956) NKANKHKPWIEAEYQGIVMENDNTVLLNPPLFALDKDAPLRYAGEICGFRLHGSGVPFEAVILDKATGEGLIRAKEPVDCEAQKEHTFTIQAYDCGEGPDGTNTKKSHKATVHVRVNDVNEFAPVFVERLYRAAVTEGKLYDRILRVEAIDGDCSPQYSQICYYEILTPNTPFLIDNDGNIENTEKLQYSGEKLYKFTVTAYDCGKKRAADDAEVEIQVKPTCKPSWQGWNKRIEYAPGAGSLALFPGIRLETCDEPLWNIQATIELQTSHVAKGCDRDNYSERALRKLCGAATGEVDLLPMPGPNANWTAGLSVHYSQDSSLIYWFNGTQAVQVPLGGPAGLGSGPQDGFSDHFTLSFWMKHSVTPSKGKKEEETIVCNTVQNEDGYSHYSLTVHGCRIAFLYWPLLESARPVKFLWKLEQVCDDEWHHYALNLEFPTVTLYTDGISFDPALIHDNGLIHPPRREPALMIGACWTEEKNKEKKGGENSTDTASGDPLLIHHYFHGYLAGFSVRSGRLESREVIECLYACREGLDYRDFESLGKGMKVHVNPSQSLLTLEGDDVETFNHALQHVAYMNTLRFATPGVRPLRLTTAVKCFSEESCVSIPEVEGYVVVLQPDAPQILLSGTAHFARPAVDFEGPEGVPLFPDLQITCSISHQVEAKADESWQGTVTDTRMSDEIVHNLDGCEISLVGDDLDPERESLLLDMASLQQRGLELTNTSAYLTIAGVETITVYEEILRQARYQLRHGAALYARKFRLSCSEMNGRYSSNEFIVEVNVLHSMNRVAHPSHVLSSQQFLHRGHQPPPEMAGHSLASSHRNSMVPSAATLIIVVCVGFLVLMVILGLVRIHSLHRRVSGTGGPSGASTDPKDPDLFWDDSALTIIVNPMESYQNQQTCVAGVAGGQQEEEDSSDSEAADSPSSDERRIIESPPHRY |
